Experimental data from patent US9867372B2, “Tetrazolinone compound and use of same” (SUMITOMO CHEMICAL COMPANY, LIMITED, priority 2013, dated 2018).
Where two headings read alike, the source gives them in different places. Some results were stated once for a whole list of compounds, not compound by compound.

Assays:
Assay type in all cases: in vivo
[1] = system: rice blast fungus (Magnaporthe grisea)
[2] = system: wheat leaf blotch fungus (Septoria tritici); experiment: wheat leaf blotch control test, foliar spray 4 days before inoculation; conditions: 500 ppm, sprayed 4 days before inoculation (Test Example 11)
[3] = system: cucumber corynespora leaf spot fungus (Corynespora cassicola); experiment: cucumber corynespora leaf spot control test, foliar spray before inoculation; conditions: 200 ppm, sprayed one day before inoculation (Test Example 18)
[4] = system: wheat rust fungus (Puccinia recondita); experiment: wheat rust control test, foliar spray before inoculation
[5] = 500 ppm, sprayed 5 days before inoculation (Test Example 5)
[6] = 200 ppm, sprayed 5 days before inoculation (Test Example 6)

SMILES	lesion area on the treated plant with respect to the lesion area on the non-treated plant ([1]; 200 ppm, rice (Test Example 4))	area of lesion spots on the treated plant relative to that on an untreated plant [4, 5]	lesion area on the treated plant with respect to the lesion area on the non-treated plant ([1]; 500 ppm, rice (Test Example 3))	area of lesion spots on the treated plant relative to that on an untreated plant [4, 6]	other results
Cc1cccc(-n2nnn(C)c2=O)c1COc1ccnc(-c2ccc(Cl)cc2)c1 [compound 87]	≤ 30%	–	–	–	area of lesion spots on the treated plant relative to that on an untreated plant [2]: ≤ 30%; area of lesion spots on the treated plant relative to that on an untreated plant [3]: ≤ 30%
Cc1cccc(-n2nnn(C)c2=O)c1COc1cc(-c2ccccc2)ccc1F [compound 126]	≤ 30%	≤ 30%	–	–	–
COc1ccc(OCc2c(C)cccc2-n2nnn(C)c2=O)cc1-c1ccccc1 [compound 136]	–	–	≤ 30%	≤ 30%	–
Cc1ccc(OCc2c(C)cccc2-n2nnn(C)c2=O)cc1-c1ccc(F)cc1 [compound 119]	–	≤ 30%	≤ 30%	–	–
COc1cc(F)ccc1-c1cccc(OCc2c(C)cccc2-n2nnn(C)c2=O)n1 [compound 169]	≤ 30%	–	–	≤ 30%	–
Cc1cccc(-n2nnn(C)c2=O)c1COc1cccc(-c2ccc(C(F)(F)F)cc2)c1 [compound 49]	≤ 30%	–	–	≤ 30%	–
COc1ccc(-c2cccc(OCc3c(C)cccc3-n3nnn(C)c3=O)c2)cc1 [compound 39]	–	≤ 30%	≤ 30%	–	–
Cc1cccc(-n2nnn(C)c2=O)c1COc1cccc(-c2ccc(Oc3ccccc3)cc2)n1 [compound 72]	≤ 30%	–	–	≤ 30%	–
COc1ccc(-c2cccc(OCc3c(C4CC4)cccc3-n3nnn(C)c3=O)n2)cc1 [compound 13]	≤ 30%	≤ 30%	–	–	–
COc1cccc(-c2cc(OCc3c(C)cccc3-n3nnn(C)c3=O)ccc2C)c1 [compound 116]	≤ 30%	≤ 30%	–	–	–
Cc1cccc(-n2nnn(C)c2=O)c1COc1cccc(-c2ccc(Cl)s2)n1 [compound 217]	≤ 30%	–	–	≤ 30%	–
Cc1cccc(-n2nnn(C)c2=O)c1COc1cccc(-c2ccc(F)cc2)n1 [compound 5]	≤ 30%	≤ 30%	–	–	–
COc1cccc(-c2ccnc(OCc3c(C)cccc3-n3nnn(C)c3=O)n2)c1 [compound 98]	–	≤ 30%	≤ 30%	–	–
COc1cccc(-c2ccc(F)c(OCc3c(C)cccc3-n3nnn(C)c3=O)c2)c1 [compound 125]	–	≤ 30%	≤ 30%	–	–
COc1ccccc1-c1cccc(OCc2c(C)cccc2-n2nnn(C)c2=O)n1 [compound 19]	≤ 30%	–	–	≤ 30%	–
Cc1cccc(-n2nnn(C)c2=O)c1COc1cccc(-c2cccc(Cl)c2)c1 [compound 55]	≤ 30%	–	–	≤ 30%	–
COc1ccc(-c2cccc(OCc3c(Cl)cccc3-n3nnn(C)c3=O)n2)cc1 [compound 67]	≤ 30%	–	–	≤ 30%	–
CCc1cccc(-n2nnn(C)c2=O)c1COc1cccc(-c2ccc(F)cc2)n1 [compound 65]	–	≤ 30%	≤ 30%	–	–
Cc1ccc(-c2cccc(OCc3c(C)cccc3-n3nnn(C)c3=O)c2)cc1 [compound 46]	≤ 30%	–	–	≤ 30%	–
COc1cccc(-c2cc(OCc3c(C)cccc3-n3nnn(C)c3=O)ccc2OC)c1 [compound 138]	≤ 30%	–	–	≤ 30%	–
Cc1cccc(-n2nnn(C)c2=O)c1COc1cccc(-c2ccc(F)cc2)c1 [compound 58]	≤ 30%	–	–	≤ 30%	–
Cc1cccc(-n2nnn(C)c2=O)c1COc1cccc(-c2ccc(Cl)s2)c1 [compound 209]	≤ 30%	–	–	≤ 30%	–

SMILES	lesion area on the treated plant with respect to the lesion area on the non-treated plant ([1]; 200 ppm, rice (Test Example 4))	area of lesion spots on the treated plant relative to that on an untreated plant [4, 5]	lesion area on the treated plant with respect to the lesion area on the non-treated plant ([1]; 500 ppm, rice (Test Example 3))	area of lesion spots on the treated plant relative to that on an untreated plant [4, 6]	other results
Cc1ccc(OCc2c(C)cccc2-n2nnn(C)c2=O)cc1-c1ccccc1 [compound 117]	–	≤ 30%	≤ 30%	–	–
COc1ccc(-c2nccc(OCc3c(C)cccc3-n3nnn(C)c3=O)n2)cc1 [compound 92]	≤ 30%	–	–	≤ 30%	–
COC(=O)c1ccc(-c2cccc(OCc3c(C)cccc3-n3nnn(C)c3=O)n2)cc1 [compound 106]	≤ 30%	–	–	≤ 30%	–
COc1ccc(-c2cc(OCc3c(C)cccc3-n3nnn(C)c3=O)ccc2OC)cn1 [compound 139]	–	≤ 30%	≤ 30%	–	–
COc1ccc(OCc2c(C)cccc2-n2nnn(C)c2=O)cc1-c1ccc(F)cc1 [compound 141]	–	≤ 30%	≤ 30%	–	–
Cc1ccc(OCc2c(C)cccc2-n2nnn(C)c2=O)cc1-c1ccc(Cl)cc1 [compound 122]	–	≤ 30%	≤ 30%	–	–
Cc1cccc(-n2nnn(C)c2=O)c1COc1cccc(-c2cnn(C)c2)n1 [compound 215, 1-methyl-4-{3-methyl-2-[6-(1-methyl-1H-pyrazol-4-yl)pyridin-2-yloxymethyl]-phenyl}-1,4-dihydrotetrazol-5-one]	≤ 30%	–	–	≤ 30%	–
Cc1cccc(-n2nnn(C)c2=O)c1COc1cccc(-c2ccc(OC(F)(F)F)cc2)n1 [compound 11]	≤ 30%	≤ 30%	–	–	–
Cc1cccc(-n2nnn(C)c2=O)c1COc1cccc(-c2ccc3c(c2)OCO3)c1 [compound 60]	≤ 30%	–	–	≤ 30%	–
COc1ccccc1-c1ccnc(OCc2c(C)cccc2-n2nnn(C)c2=O)n1 [compound 101]	≤ 30%	≤ 30%	–	–	–
Cc1cccc(-n2nnn(C)c2=O)c1COc1cc(-c2ccc(Cl)cc2)ccc1F [compound 134]	≤ 30%	–	–	≤ 30%	–
Cc1cccc(-n2nnn(C)c2=O)c1COc1cccc(-c2cccc(F)c2)n1 [compound 8]	≤ 30%	–	–	≤ 30%	–
Cc1cccc(-n2nnn(C)c2=O)c1COc1cccc(-c2ccc(Cl)cc2)c1F [compound 112]	≤ 30%	–	–	≤ 30%	–
COc1ccc(OCc2c(C)cccc2-n2nnn(C)c2=O)cc1-c1ccc(Cl)cc1 [compound 137]	–	≤ 30%	≤ 30%	–	–
COc1cccc(-n2nnn(C)c2=O)c1COc1cc(-c2cccc(Cl)c2)ccc1C [compound 37]	≤ 30%	–	–	≤ 30%	–
Cc1cccc(-n2nnn(C)c2=O)c1COc1cccc(-c2ccc3c(c2)OCO3)n1 [compound 74]	≤ 30%	–	–	≤ 30%	–
COc1ccc(-c2cc(OCc3c(C)cccc3-n3nnn(C)c3=O)ccc2C)cc1 [compound 120]	–	≤ 30%	≤ 30%	–	–
COc1ccc(-c2ccc(F)c(OCc3c(C)cccc3-n3nnn(C)c3=O)c2)cc1 [compound 131]	–	≤ 30%	≤ 30%	–	–
Cc1cccc(-n2nnn(C)c2=O)c1COc1cccc(-c2ccsc2)n1 [compound 174]	≤ 30%	–	–	≤ 30%	–
Cc1cccc(-n2nnn(C)c2=O)c1COc1cccc(-c2ccc3ncccc3c2)c1 [compound 157]	–	≤ 30%	≤ 30%	–	–
COc1ccc(-c2cccc(OCc3c(C)cccc3-n3nnn(C)c3=O)n2)cc1 [compound 4]	–	≤ 30%	≤ 30%	–	–
